Measured values published in the supplement of paper PMC10849652.
The other results are listed elsewhere or left out.

Sequences of proteins named here, by UniProt entry; tags and fusion partners are left off. A change or cut given only in a name is not applied to a line headed by its entry.
UniProt P61163, whole entry, looked up: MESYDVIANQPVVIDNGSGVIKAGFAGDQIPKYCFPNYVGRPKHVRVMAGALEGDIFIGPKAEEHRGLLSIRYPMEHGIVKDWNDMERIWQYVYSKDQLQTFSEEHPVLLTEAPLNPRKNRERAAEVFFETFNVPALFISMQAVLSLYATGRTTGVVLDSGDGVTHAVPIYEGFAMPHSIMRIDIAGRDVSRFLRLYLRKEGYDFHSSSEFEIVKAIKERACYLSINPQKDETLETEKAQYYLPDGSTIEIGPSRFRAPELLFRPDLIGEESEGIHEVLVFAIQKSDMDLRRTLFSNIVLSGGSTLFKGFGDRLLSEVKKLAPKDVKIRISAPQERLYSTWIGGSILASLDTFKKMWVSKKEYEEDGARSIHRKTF
UniProt P09110: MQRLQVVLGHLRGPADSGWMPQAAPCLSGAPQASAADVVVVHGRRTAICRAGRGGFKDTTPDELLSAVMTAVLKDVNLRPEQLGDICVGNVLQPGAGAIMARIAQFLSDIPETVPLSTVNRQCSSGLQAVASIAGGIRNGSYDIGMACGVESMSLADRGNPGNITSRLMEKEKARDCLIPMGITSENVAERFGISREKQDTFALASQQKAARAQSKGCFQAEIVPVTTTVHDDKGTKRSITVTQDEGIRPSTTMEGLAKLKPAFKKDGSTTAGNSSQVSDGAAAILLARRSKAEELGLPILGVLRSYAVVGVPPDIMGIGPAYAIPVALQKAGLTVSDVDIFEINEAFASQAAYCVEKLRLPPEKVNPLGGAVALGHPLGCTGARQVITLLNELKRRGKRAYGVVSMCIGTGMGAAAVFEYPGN
UniProt O14734: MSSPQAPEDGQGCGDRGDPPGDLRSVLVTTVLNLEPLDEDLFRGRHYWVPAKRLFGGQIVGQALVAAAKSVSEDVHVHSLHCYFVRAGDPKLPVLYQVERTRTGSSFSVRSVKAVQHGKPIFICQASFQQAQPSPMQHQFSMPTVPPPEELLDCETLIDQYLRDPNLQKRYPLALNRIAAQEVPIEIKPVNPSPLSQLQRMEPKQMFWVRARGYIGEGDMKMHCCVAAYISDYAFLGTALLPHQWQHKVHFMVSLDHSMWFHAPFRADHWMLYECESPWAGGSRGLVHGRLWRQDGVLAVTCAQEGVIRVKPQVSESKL
UniProt P78536: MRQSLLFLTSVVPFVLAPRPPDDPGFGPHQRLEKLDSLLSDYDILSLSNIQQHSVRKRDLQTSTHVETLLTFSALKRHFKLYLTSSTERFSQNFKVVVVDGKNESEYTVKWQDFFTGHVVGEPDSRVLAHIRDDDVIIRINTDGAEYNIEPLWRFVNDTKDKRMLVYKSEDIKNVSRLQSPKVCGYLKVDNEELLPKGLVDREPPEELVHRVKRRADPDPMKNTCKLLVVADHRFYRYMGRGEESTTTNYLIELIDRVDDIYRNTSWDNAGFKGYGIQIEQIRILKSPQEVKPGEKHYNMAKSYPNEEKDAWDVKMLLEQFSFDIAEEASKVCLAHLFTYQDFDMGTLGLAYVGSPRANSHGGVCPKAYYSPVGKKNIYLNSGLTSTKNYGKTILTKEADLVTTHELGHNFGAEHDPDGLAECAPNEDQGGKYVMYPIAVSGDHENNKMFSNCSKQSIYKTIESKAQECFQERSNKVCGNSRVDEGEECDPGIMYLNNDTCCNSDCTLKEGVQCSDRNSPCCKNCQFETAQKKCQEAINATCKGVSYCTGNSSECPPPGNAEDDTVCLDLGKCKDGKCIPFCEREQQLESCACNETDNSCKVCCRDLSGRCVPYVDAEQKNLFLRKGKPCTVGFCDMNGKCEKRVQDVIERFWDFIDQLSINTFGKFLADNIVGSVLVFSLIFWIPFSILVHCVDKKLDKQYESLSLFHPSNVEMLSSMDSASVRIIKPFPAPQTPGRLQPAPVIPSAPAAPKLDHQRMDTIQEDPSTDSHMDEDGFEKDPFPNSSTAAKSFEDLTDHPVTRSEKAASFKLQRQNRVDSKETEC
UniProt Q9Y305: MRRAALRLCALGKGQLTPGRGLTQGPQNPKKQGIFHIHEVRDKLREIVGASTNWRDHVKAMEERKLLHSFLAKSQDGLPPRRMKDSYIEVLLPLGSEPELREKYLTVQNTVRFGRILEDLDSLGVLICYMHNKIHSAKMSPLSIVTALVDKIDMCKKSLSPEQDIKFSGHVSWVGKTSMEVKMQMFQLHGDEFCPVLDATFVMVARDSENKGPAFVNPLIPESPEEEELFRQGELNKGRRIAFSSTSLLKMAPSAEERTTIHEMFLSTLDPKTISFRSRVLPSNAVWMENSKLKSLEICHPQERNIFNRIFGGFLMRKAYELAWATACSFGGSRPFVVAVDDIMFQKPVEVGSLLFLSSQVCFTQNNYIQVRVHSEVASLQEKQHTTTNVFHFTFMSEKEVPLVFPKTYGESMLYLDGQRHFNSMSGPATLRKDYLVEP
UniProt Q7Z6V5: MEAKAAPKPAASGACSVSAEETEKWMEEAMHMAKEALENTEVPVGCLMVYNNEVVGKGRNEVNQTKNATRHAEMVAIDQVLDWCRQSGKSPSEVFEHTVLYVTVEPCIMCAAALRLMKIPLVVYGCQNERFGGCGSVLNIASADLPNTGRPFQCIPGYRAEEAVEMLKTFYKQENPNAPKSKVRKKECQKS
UniProt O75027: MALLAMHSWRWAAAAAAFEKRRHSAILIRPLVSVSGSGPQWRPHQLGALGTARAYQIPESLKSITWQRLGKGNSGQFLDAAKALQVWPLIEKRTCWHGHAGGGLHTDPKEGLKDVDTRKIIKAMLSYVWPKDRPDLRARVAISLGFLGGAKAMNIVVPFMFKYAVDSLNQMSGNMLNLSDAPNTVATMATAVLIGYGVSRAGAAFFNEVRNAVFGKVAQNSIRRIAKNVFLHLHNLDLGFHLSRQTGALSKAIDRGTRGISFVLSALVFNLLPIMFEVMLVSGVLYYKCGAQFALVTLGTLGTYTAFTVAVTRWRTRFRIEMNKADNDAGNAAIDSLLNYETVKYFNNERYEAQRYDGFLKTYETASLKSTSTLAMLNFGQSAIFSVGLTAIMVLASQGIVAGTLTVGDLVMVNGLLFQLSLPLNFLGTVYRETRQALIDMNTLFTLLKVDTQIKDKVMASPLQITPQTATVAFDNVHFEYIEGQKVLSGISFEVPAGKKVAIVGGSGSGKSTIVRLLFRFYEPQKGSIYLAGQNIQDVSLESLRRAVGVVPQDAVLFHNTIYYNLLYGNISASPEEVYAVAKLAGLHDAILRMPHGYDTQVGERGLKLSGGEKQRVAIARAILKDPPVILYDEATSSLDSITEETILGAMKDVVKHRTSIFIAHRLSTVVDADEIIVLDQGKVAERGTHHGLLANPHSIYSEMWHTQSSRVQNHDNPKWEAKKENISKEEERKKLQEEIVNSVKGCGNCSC
UniProt P33527: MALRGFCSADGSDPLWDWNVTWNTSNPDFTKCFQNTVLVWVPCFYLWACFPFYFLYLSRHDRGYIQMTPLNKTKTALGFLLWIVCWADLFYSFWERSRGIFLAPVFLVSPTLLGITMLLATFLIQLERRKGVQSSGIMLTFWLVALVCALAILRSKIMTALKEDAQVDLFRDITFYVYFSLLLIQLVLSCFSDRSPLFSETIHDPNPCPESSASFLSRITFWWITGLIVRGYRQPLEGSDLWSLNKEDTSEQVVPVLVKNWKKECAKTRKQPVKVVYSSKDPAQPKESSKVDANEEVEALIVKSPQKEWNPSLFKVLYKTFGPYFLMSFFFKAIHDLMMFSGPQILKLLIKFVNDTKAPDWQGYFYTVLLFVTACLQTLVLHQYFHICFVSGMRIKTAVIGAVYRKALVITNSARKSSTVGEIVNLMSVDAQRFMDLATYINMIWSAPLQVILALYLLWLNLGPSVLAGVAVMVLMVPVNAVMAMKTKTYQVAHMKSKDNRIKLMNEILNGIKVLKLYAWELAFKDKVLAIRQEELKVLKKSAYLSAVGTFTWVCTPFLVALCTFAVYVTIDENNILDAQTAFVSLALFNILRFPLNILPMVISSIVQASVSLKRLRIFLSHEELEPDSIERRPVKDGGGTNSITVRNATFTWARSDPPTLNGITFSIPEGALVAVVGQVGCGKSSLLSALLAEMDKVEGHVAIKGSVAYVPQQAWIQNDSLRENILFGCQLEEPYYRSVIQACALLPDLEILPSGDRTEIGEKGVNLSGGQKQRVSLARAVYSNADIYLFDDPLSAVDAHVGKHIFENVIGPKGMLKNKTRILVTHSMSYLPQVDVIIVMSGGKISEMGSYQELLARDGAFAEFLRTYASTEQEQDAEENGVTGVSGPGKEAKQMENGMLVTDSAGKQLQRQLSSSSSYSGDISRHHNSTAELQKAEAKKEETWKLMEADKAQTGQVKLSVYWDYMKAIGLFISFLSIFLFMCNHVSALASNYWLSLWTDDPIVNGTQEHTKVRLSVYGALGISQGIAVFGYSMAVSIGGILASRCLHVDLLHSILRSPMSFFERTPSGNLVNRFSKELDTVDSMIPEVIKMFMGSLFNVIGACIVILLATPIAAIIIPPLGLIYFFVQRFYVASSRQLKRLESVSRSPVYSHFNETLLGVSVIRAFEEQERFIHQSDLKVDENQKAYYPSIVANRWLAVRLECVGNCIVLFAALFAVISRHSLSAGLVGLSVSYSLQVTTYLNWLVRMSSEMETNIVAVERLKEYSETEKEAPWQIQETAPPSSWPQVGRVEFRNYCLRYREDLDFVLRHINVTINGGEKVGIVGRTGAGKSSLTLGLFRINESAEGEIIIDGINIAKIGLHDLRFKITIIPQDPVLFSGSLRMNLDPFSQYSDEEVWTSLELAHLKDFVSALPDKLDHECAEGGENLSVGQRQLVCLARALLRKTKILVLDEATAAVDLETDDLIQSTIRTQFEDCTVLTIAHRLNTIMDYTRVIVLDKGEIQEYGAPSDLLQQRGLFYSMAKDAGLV
UniProt Q9NUT2: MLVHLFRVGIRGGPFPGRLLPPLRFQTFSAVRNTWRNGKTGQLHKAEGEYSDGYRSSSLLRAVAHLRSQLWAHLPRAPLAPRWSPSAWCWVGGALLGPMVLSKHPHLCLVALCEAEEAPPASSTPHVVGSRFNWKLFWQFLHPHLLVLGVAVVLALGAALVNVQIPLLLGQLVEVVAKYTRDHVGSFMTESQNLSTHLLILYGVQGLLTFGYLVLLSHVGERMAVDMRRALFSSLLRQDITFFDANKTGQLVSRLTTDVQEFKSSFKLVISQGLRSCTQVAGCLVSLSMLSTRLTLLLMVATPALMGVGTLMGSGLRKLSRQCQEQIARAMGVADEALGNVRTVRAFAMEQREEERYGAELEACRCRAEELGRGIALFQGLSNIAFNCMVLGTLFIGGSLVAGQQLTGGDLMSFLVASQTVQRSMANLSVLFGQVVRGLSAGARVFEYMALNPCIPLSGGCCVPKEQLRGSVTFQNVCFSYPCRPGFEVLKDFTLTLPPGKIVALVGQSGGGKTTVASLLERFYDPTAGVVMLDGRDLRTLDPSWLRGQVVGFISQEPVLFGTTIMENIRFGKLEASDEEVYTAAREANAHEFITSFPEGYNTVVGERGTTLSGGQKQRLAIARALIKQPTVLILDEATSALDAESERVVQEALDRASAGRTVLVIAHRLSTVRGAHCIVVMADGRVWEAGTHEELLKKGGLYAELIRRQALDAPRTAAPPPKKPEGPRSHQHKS
UniProt Q9NRN7: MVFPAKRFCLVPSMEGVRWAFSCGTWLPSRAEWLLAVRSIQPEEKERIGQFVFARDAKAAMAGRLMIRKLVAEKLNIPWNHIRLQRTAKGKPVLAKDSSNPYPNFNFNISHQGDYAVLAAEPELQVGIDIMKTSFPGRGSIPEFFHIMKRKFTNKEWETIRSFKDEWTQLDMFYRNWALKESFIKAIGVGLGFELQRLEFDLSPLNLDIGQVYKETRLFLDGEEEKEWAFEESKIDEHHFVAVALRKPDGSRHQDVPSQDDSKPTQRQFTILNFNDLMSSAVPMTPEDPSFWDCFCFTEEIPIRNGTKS
UniProt Q15067: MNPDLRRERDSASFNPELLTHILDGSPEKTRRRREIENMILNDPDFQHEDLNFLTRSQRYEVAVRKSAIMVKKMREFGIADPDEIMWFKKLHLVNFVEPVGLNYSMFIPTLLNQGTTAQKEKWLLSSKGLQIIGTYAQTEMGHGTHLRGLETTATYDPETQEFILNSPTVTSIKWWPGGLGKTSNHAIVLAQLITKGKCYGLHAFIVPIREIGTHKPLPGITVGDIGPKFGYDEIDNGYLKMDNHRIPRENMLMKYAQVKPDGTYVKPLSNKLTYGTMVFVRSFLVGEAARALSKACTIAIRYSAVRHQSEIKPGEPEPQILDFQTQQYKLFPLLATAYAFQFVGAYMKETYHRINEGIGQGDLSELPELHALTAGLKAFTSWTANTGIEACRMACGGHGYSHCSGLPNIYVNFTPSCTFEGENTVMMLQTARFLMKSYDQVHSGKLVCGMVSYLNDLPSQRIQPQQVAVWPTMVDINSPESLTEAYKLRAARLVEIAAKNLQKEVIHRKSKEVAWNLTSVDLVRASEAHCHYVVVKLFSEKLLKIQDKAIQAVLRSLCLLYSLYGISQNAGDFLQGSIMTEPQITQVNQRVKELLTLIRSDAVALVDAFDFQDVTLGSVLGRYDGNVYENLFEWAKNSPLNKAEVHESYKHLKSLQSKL

Experiments:
Assay in all cases: log2 fold change, soluble protein after heating vs DMSO (PISA); higher = thermal stabilisation; K562 cells, 10 uM, 30 min; active = over 0.2 and 3.5 SD of the protein, either way, in both replicates (recomputed)
[1] = compound: CC[C@@H]1C(=O)N(C)c2cnc(Nc3ccc(C(=O)NC4CCN(C)CC4)cc3OC)nc2N1C1CCCC1
Outline: (§1)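 Soluble protein was quantified by TMTpro 16plex LC-MS/MS after channel sums were equalised. It was obtained as the supernatant after 21,000xg for 90 min from pooled aliquots of K562 cells (2×10^6 cells/mL, 10 μM compound, 30 min) heated for 3 min across 48°C-58°C and extracted in PBS with 0.5% NP-40 at 4°C. Thermal stability values are relative to control samples and come from duplicates. They are given as log2 fold changes.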

[2] = compound: CC[C@@H]1C(=O)N(C)c2cnc(Nc3ccc(C(=O)N[C@H]4CC[C@H](N5CCN(CC6CC6)CC5)CC4)cc3OC)nc2N1C(C)C [volasertib]
Outline: as §1

[3] = compound: CC[C@H](C)N1C=C(C2=C(C=C(C=C21)C3=CN=C(C=C3)N4CCNCC4)C(=O)NCC5=C(C=C(NC5=O)C)C)C
Outline: as §1

[4] = compound: CC[C@H](C)[C@@H](C(=O)N[C@@H]([C@@H](C)O)C(=O)N[C@@H](CC(C)C)C(=O)[C@]1(CO1)C)NC(=O)[C@H]([C@@H](C)CC)N(C)C(=O)C [epoxomicin]
Outline: as §1

[5] = compound: CCn1c(C(=O)N(C2CC2)C2CC2)cc2c3c(ncn3C)c(Nc3cc(C)n(C)n3)nc21
Outline: as §1

[6] = compound: CCn1cc(-c2ccnc3[nH]c(-c4cccc(CN(C)C)c4)cc23)c(-c2ccc(NC(=O)N(C)C)cc2)n1
Outline: as §1

[7] = compound: CN(C)CC(=O)Nc1ccc2[nH]c(=O)c3ccccc3c2c1
Outline: as §1

[8] = compound: CN(CCOC1=CC=C(C=C1)C[C@H]2C(=O)NC(=O)S2)C3=CC=CC=N3 (racemic) [rosiglitazone]
Outline: as §1

[9] = compound: CN1C2=C(C3=C1C(=O)N(N=C3)CC4=CC(=CC=C4)N)SC(=C2)S(=O)C
Outline: as §1

[10] = compound: CN1CCC(CNc2ccc3ncc(-c4cccc(OC(F)(F)F)c4)n3n2)CC1
Outline: as §1

Measured: log2 fold change

ABCF3 (UniProt Q9NUQ8)
inactive: [1] 0.043 | [2] -0.192 | [3] 0.099 | [4] -0.324 | [5] -0.097 | [6] -0.228 | [7] 0.017 | [8] -0.12 | [9] 0.446 | [10] 0.256

ACAA2 (UniProt P42765)
inactive: [1] 0.003 | [2] 0.045 | [3] -0.027 | [4] 0.026 | [5] -0.015 | [6] -0.049 | [7] -0.026 | [8] -0.009 | [9] 0.01 | [10] 0.047

ACTR1A (UniProt P61163)
inactive: [1] 0 | [2] -0.05 | [3] -0.003 | [4] 0.029 | [5] 0.013 | [6] 0.015 | [7] -0.023 | [8] -0.017 | [9] -0.047 | [10] -0.005

ACAA1 (UniProt P09110)
inactive: [1] 0.021 | [2] 0.044 | [3] -0.024 | [4] 0.008 | [5] 0.008 | [6] 0.001 | [7] -0.007 | [8] -0.01 | [9] -0.083 | [10] 0.068

ABRAXAS2 (UniProt Q15018)
inactive: [1] 0.021 | [2] 0.064 | [3] 0.002 | [4] -0.024 | [5] -0.014 | [6] -0.038 | [7] 0.005 | [8] 0.01 | [9] -0.036 | [10] -0.015

ACOT8 (UniProt O14734)
inactive: [1] 0.015 | [2] 0.028 | [3] 0.004 | [4] 0.047 | [5] 0.003 | [6] -0.004 | [7] -0.034 | [8] 0.02 | [9] -0.035 | [10] 0.085

ACBD3 (UniProt Q9H3P7)
inactive: [1] 0.003 | [2] -0.057 | [3] 0.061 | [4] 0.032 | [5] 0.014 | [6] -0.041 | [7] 0.034 | [8] 0.029 | [9] -0.025 | [10] -0.03

2 entries drawn at random from the list so far:
ACBD3 (UniProt Q9H3P7)
inactive: [1] 0.003 | [2] -0.057 | [3] 0.061 | [4] 0.032 | [5] 0.014 | [6] -0.041 | [7] 0.034 | [8] 0.029 | [9] -0.025 | [10] -0.03

ACOT8 (UniProt O14734)
inactive: [1] 0.015 | [2] 0.028 | [3] 0.004 | [4] 0.047 | [5] 0.003 | [6] -0.004 | [7] -0.034 | [8] 0.02 | [9] -0.035 | [10] 0.085

Going on with the list:

ADAM17 (UniProt P78536)
inactive: [1] 0.033 | [2] -0.002 | [3] 0.051 | [4] -0.004 | [5] 0.006 | [6] 0.039 | [7] -0.041 | [8] -0.006 | [9] 0.015 | [10] 0.113

ACOT9 isoform 4 (UniProt Q9Y305)
inactive: [1] 0.137 | [2] 0.12 | [3] 0.03 | [4] -0.003 | [5] -0.042 | [6] -0.021 | [7] -0.042 | [8] -0.006 | [9] 0.029 | [10] 0.142

ADAT2 (UniProt Q7Z6V5)
inactive: [1] 0.037 | [2] -0.004 | [3] 0.003 | [4] 0.001 | [5] 0.002 | [6] -0.044 | [7] -0.008 | [8] 0.03 | [9] -0.148 | [10] 0.07

ABCB7 isoform 2 (UniProt O75027)
inactive: [1] -0.075 | [2] -0.117 | [3] 0.029 | [4] -0.003 | [5] -0.005 | [6] -0.024 | [7] 0.01 | [8] 0.056 | [9] -0.044 | [10] -0.052

ABCC1 (UniProt P33527)
inactive: [1] 0.091 | [2] 0.01 | [3] -0.032 | [4] -0.021 | [5] 0.011 | [6] -0.049 | [7] -0.025 | [8] 0.022 | [9] -0.038 | [10] 0.11

ABCB8 (UniProt Q9NUT2)
inactive: [1] 0.015 | [2] -0.068 | [3] 0.033 | [4] 0.089 | [5] -0.047 | [6] 0.011 | [7] 0.013 | [8] 0 | [9] -0.05 | [10] -0.069

AASDHPPT (UniProt Q9NRN7)
inactive: [1] -0.032 | [2] -0.043 | [3] 0.02 | [4] 0.051 | [5] -0.042 | [6] -0.045 | [7] 0.012 | [8] 0.018 | [9] -0.088 | [10] 0.023

ACOX1 isoform 2 (UniProt Q15067)
inactive: [1] 0.052 | [2] 0.068 | [3] -0.032 | [4] 0.01 | [5] 0.081 | [6] -0.048 | [7] -0.002 | [8] 0.01 | [9] -0.056 | [10] 0.012
